# Screening data

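Bacterial growth of an S. aureus strain, measured as OD600 absorbance after a 20-hour incubation at 30 °C, expressed relative to control plates.
The test concentration is not given here.
The value is growth as a percent of the controls; lower percent means stronger growth inhibition.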

Values are in %.
Common to all entries: measured here: growth at 30 °C.
Part of the compounds only, not a random draw; the main read-out is not listed here.
An entry listed twice with the same setting is a separate test.

structure,relative growth (%)
CC1=C(C(=O)O)N2C(=O)[C@@H](NC(=O)C(N)c3ccc(O)cc3)[C@H]2SC1 (some centres unmarked),90.36
CCn1nc(C(=O)O)c(=O)c2cc3c(cc21)OCO3,-0.74
CO/N=C(\C(=O)N[C@@H]1C(=O)N2C(C(=O)[O-])=C(C[N+]3(C)CCCC3)CS[C@H]12)c1csc(N)n1,-1.01
CC1=C(C(=O)O)N2C(=O)[C@@H](NC(=O)[C@H](N)C3=CCC=CC3)C2SC1 (some centres unmarked),92.41
On1ccccc1=S,-0.29
COc1ccc(-c2nc(CS(=O)CC(=O)NCc3ccccc3OC)c(C)o2)cc1 (centres unmarked),92.95
CC(=O)N1CCN(c2ccc(OC[C@H]3CO[C@](Cn4ccnc4)(c4ccc(Cl)cc4Cl)O3)cc2)CC1,1.86
CC(C)(C)CC(C)(C)c1ccc(OCCOCC[N+](C)(C)Cc2ccccc2)cc1,-0.87
C[C@H]1COc2c(N3CCN(C)CC3)c(F)cc3c(=O)c(C(=O)O)cn1c23,-0.77
CC1=C(C(=O)O)N2C(=O)[C@@H](NC(=O)C(N)c3ccccc3)[C@H]2SC1 (some centres unmarked),96.99
CS(=O)(=O)c1ccc([C@@H](O)[C@@H](CF)NC(=O)C(Cl)Cl)cc1,-0.2
Oc1cccc2cccnc12,0.66
CS(=O)(=O)c1ccc(C(O)[C@H](CF)NC(=O)C(Cl)Cl)cc1 (some centres unmarked),-0.52
O=C(O)c1cn(C2CC2)c2cc(N3CCNCC3)c(F)cc2c1=O,1.81
CCc1cccc2c(-c3ccccc3)nc(SCC(=O)Nc3ccc(OC)cc3)nc12,95.59
Cc1nnc(SCC2=C(C(=O)O)N3C(=O)[C@@H](NC(=O)Cn4cnnn4)[C@H]3SC2)s1,-1.26
CCN1CCN(c2cc3c(cc2F)c(=O)c(C(=O)O)cn3C2CC2)CC1,0.64
Cc1ccc2ccc(C(Nc3ccccn3)c3ccccc3)c(O)c2n1 (centres unmarked),87.02
Cc1cc(C)n2nc(Nc3ccccc3)cc2n1,79.95
O=C(N[C@H](CO)[C@H](O)c1ccc([N+](=O)[O-])cc1)C(Cl)Cl,-0.07
CCCCCCCCCCCCC[N+](C)(C)Cc1ccccc1,-0.64
Clc1ccc(CSC(Cn2ccnc2)c2ccc(Cl)cc2Cl)cc1 (centres unmarked),3.69
N#C/C(=C\c1c(Oc2ccc(Br)cc2)nc2ccccn2c1=O)c1nc2ccccc2s1,86.2
CCN1CCN(C(=O)NC(C(=O)NC2C(=O)N3C(C(=O)O)=C(CSc4nnnn4C)CSC23)c2ccc(O)cc2)C(=O)C1=O (centres unmarked),-0.8
CCCCC1CCC(C(=O)N2CC(=O)Nc3ccc(Br)cc3C2c2ccc(F)cc2)CC1 (centres unmarked),93.33
CC1(C)S[C@@H]2[C@H](NC(=O)[C@H](N)c3ccccc3)C(=O)N2[C@H]1C(=O)O,97.92
C[C@H]1COc2c(N3CCN(C)CC3)c(F)cc3c(=O)c(C(=O)O)cn1c23,-0.33
CC(C)Nc1ccc(Nc2ccccc2)cc1,1.94
CC[C@H]1OC(=O)[C@H](C)[C@@H](O[C@H]2C[C@@](C)(OC)[C@@H](O)[C@H](C)O2)[C@H](C)[C@@H](O[C@@H]2O[C@H](C)C[C@H](N(C)C)[C@H]2O)[C@](C)(O)C[C@@H](C)/C(=N\OCOCCOC)[C@H](C)[C@@H](O)[C@]1(C)O,-0.64
CCN1CCN(c2cc3c(cc2F)c(=O)c(C(=O)O)cn3C2CC2)CC1,0.06
CCN1CCOC(=O)C1CC(=O)Nc1cc(C)cc(C)c1 (centres unmarked),75.63
CC(=O)[O][Hg][c]1ccccc1,-0.67
CCOc1ccccc1NC(=O)CSc1ncc(S(=O)(=O)c2ccc(C(C)(C)C)cc2)c(=O)[nH]1,91.9
COc1ccccc1Nc1nc2ccccc2s1,78.4
CN(C)c1ccc(O)c2c1C[C@H]1C[C@H]3[C@H](N(C)C)C(=O)C(C(N)=O)=C(O)[C@@]3(O)C(=O)C1=C2O,-0.87
O=C(CSc1nc2ccccc2o1)NCCc1ccccc1,79.01
CCN1CCN(c2cc3c(cc2F)c(=O)c(C(=O)O)cn3C2CC2)CC1,-0.17
CC1COc2c(N3CCN(C)CC3)c(F)cc3c(=O)c(C(=O)O)cn1c23 (centres unmarked),0.1
C[C@H]1COc2c(N3CCN(C)CC3)c(F)cc3c(=O)c(C(=O)O)cn1c23,-0.79
CC(=O)N1CCN(c2ccc(OCC3CO[C@](Cn4ccnc4)(c4ccc(Cl)cc4Cl)O3)cc2)CC1 (some centres unmarked),1.05
C/C=C\C1=C(C(=O)O)N2C(=O)C(NC(=O)C(N)c3ccc(O)cc3)C2SC1 (centres unmarked),47.05
CCOc1ccc(C(=O)Nc2ccc3nc(SCC(=O)N4CCOCC4)sc3c2)cc1,88.79
CCN(CC)/N=N/c1[nH]nc2nc(C)cc(C)c12,2.04
NC(=O)c1cc[n+](CC2=C(C(=O)O)N3C(=O)C(NC(=O)C(c4ccccc4)S(=O)(=O)[O-])C3SC2)cc1 (centres unmarked),75.18
C[C@H]1c2cccc(O)c2C(O)=C2C(=O)[C@]3(O)C(O)=C(C(N)=O)C(=O)[C@@H](N(C)C)[C@@H]3[C@@H](O)[C@@H]21,-0.59
C[CH2][Hg][S]c1ccccc1C(=O)O,-0.41
COc1cc(Cc2cnc(N)nc2N)cc(OC)c1OC,-0.2
COc1c(N2C[C@@H]3CCCN[C@@H]3C2)c(F)cc2c(=O)c(C(=O)O)cn(C3CC3)c12,-0.79
CCCCC(=O)NC(c1ccco1)c1cc(Cl)c2cccnc2c1O (centres unmarked),68.77
C[C@H]1c2cccc(O)c2C(O)=C2C(=O)[C@]3(O)C(O)=C(C(N)=O)C(=O)[C@@H](N(C)C)[C@@H]3[C@@H](O)[C@@H]21,-0.87
COc1ccc(N2C(=O)C(O)=CC2(OC)c2ccccc2)cc1 (centres unmarked),86.78
O[N+]1=CC=CCC1=S.On1ccccc1=S.[Zn],0.66
O=C(N[C@@H](CO)[C@H](O)c1ccc([N+](=O)[O-])cc1)C(Cl)Cl,-0.49
CC(C)COC(=O)CNc1n[nH]c(=O)[nH]c1=O,97.43
COc1cc(Cc2cnc(N)nc2N)cc(OC)c1OC,-0.03
CC1COc2c(N3CCN(C)CC3)c(F)cc3c(=O)c(C(=O)O)cn1c23 (centres unmarked),0.45
CCOc1ccc(-c2nonc2NC(=O)c2oc3cc(C)c(C)cc3c2C)cc1OCC,93.29
COC(=O)C1=C(N)Oc2cc(C)[nH]c(=O)c2C12C(=O)N(CC(C)C)c1ccccc12 (centres unmarked),89.29
CC[C@H]1OC(=O)[C@H](C)[C@@H](O[C@H]2C[C@@](C)(OC)[C@@H](O)[C@H](C)O2)[C@H](C)[C@@H](O[C@@H]2O[C@H](C)C[C@H](N(C)C)[C@H]2O)[C@](C)(O)C[C@@H](C)/C(=N/OCOCCOC)[C@H](C)[C@@H](O)[C@]1(C)O,-0.59
COc1cc2c(cc1OC)C(=O)C(CC1CCN(Cc3ccccc3)CC1)C2 (centres unmarked),76.24
Cc1nc2ccccn2c1-c1ccnc(=S)[nH]1,83.57
CN(C)c1ccc(O)c2c1C[C@H]1C[C@H]3[C@H](N(C)C)C(=O)C(C(N)=O)=C(O)[C@@]3(O)C(=O)C1=C2O,-0.59
Cc1ccc(S(=O)(=O)Nc2cccc(-c3cn4cccc(C)c4n3)c2)cc1,89.11

Some entries from above, unchanged:

- CCN1CCN(c2cc3c(cc2F)c(=O)c(C(=O)O)cn3C2CC2)CC1 | relative growth 0.06%
- C[C@H]1COc2c(N3CCN(C)CC3)c(F)cc3c(=O)c(C(=O)O)cn1c23 | relative growth -0.77%
- CC1=C(C(=O)O)N2C(=O)[C@@H](NC(=O)[C@H](N)C3=CCC=CC3)C2SC1 (some centres unmarked) | relative growth 92.41%
- CCN1CCOC(=O)C1CC(=O)Nc1cc(C)cc(C)c1 (centres unmarked) | relative growth 75.63%
- CC1COc2c(N3CCN(C)CC3)c(F)cc3c(=O)c(C(=O)O)cn1c23 (centres unmarked) | relative growth 0.45%

Data taken from PubChem BioAssay AID720641, deposited by ICCB-Longwood Screening Facility, Harvard Medical School (2013).